Where “and” joins values, the source holds several entries; their conditions need not be identical. Identical values can stand only once. Counter-ions that a name gives are not always drawn. ± gives the standard deviation of the averaged measurements. Some of the results follow. Baselines shift from plate to plate; read single values as rough.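 Primary human stellate myofibroblasts activated in culture; inactivation shown by regained lipid droplets. Readout: fraction of Hoechst-counted cells exceeding a per-plate Bodipy threshold, duplicate wells, each plate with DMSO negative and nortriptyline positive controls. Hits: control-normalized score beyond the plate's top-tenth-percentile nortriptyline wells, or among its three best wells. Final well concentrations unstated.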
System: primary human hepatic stellate cells (donor 1)
Test: percent Bodipy-positive cells; higher = more lipid droplet accumulation
Conditions: 48 h
[1] = library stock concentration: 10 mM
[2] = library stock concentration: 3.33 mM
[3] = library stock concentration: 80 uM
[4] = library stock concentration: 400 uM
[5] = library stock concentration: 2 mM
[6] = library stock concentration: 1 mM

SMILES: Cc1cc(/C(=C/Nc2ccc(Cl)cc2)C(=O)Nc2ccc(Cl)cc2)on1
- percent Bodipy-positive cells [1]: 27.6 ± 3.1%

SMILES: Oc1ccc(OCc2ccccc2)cc1 [Monobenzone]
- percent Bodipy-positive cells: 12 ± 0.21%
- percent Bodipy-positive cells [2]: 12.4 ± 3%
- percent Bodipy-positive cells [1]: 20.2 ± 14%

SMILES: CCCc1nc(C)c2c(=O)nc(-c3cc(S(=O)(=O)N4CCN(CC)CC4)ccc3OCC)[nH]n12 [Vardenafil HCl Trihydrate]
- percent Bodipy-positive cells [2]: 13.6 ± 5.8%
- percent Bodipy-positive cells [1]: 44.2 ± 4.7%

SMILES: CCCc1nc(C)c2c(=O)nc(-c3cc(S(=O)(=O)N4CCN(CC)CC4)ccc3OCC)[nH]n12
- percent Bodipy-positive cells [1]: 28.3 ± 9.6%

SMILES: CNC(=O)c1cc(COc2nnc(Nc3ccc(Cl)cc3)c3ccoc23)ccn1 [Telatinib]
- percent Bodipy-positive cells [2]: 37.8 ± 5.8%
- percent Bodipy-positive cells [1]: 72.7 ± 2.7%

SMILES: COc1cc2nccc(Oc3ccc(NC(=O)C4(C(=O)Nc5ccc(F)cc5)CC4)cc3)c2cc1OC
- percent Bodipy-positive cells [3]: 5.25 ± 0.098%
- percent Bodipy-positive cells [4]: 7.04 ± 2.5%
- percent Bodipy-positive cells [5]: 19.9 ± 2.2%
- percent Bodipy-positive cells [2]: 58.7 ± 8.9%
- percent Bodipy-positive cells [1]: 63.8% and 60.8%

SMILES: COc1cc2nccc(Oc3ccc(NC(=O)C4(C(=O)Nc5ccc(F)cc5)CC4)cc3)c2cc1OC [Cabozantinib malate (XL184)]
- percent Bodipy-positive cells [2]: 35.1 ± 3.2%
- percent Bodipy-positive cells [1]: 67.4 ± 3.4%

SMILES: O=C(O)/C=C/c1ccc(Cn2ccnc2)cc1
- percent Bodipy-positive cells [1]: 6.51 ± 0.4%

SMILES: O=C(O)/C=C/c1ccc(Cn2ccnc2)cc1 [Ozagrel hydrochloride]
- percent Bodipy-positive cells: 7.69 ± 2.8%
- percent Bodipy-positive cells [1]: 6.82 ± 0.75%

SMILES: O=C(O)/C=C/c1ccc(Cn2ccnc2)cc1 [Ozagrel]
- percent Bodipy-positive cells [6]: 10 ± 1.5%
- percent Bodipy-positive cells [2]: 8.46 ± 2.4%
- percent Bodipy-positive cells (library stock concentration: 8.8 mM): 11.4 ± 5.2%
- percent Bodipy-positive cells [1]: 12.3 ± 6.2%

SMILES: O=C(O)/C=C/c1ccc(Cn2ccnc2)cc1 [Ozagrel HCl]
- percent Bodipy-positive cells [2]: 8.06 ± 2.1%
- percent Bodipy-positive cells [1]: 11.6 ± 1.8%

SMILES: COCCOC(=O)C1=C(C)NC(C)=C(C(=O)OC/C=C/c2ccccc2)C1c1cccc([N+](=O)[O-])c1 (centres undefined) [Cilnidipine]
- percent Bodipy-positive cells [2]: 4.86 ± 2.9%

SMILES: CCCCC(C)(C)[C@H](O)C=C[C@H]1[C@H](O)CC(=O)[C@@H]1CCCCCCC(=O)O [16,16-dimethyl Prostaglandin E1]
- percent Bodipy-positive cells [6]: 18.7 ± 3%

SMILES: CCOc1nc2cccc(C(=O)O)c2n1Cc1ccc(-c2ccccc2-c2noc(=O)[nH]2)cc1 [Azilsartan]
- percent Bodipy-positive cells [2]: 11.2 ± 4.7%
- percent Bodipy-positive cells [1]: 11.8 ± 1.3%

SMILES: CCCCC[C@H](O)/C=C/[C@H]1[C@H](O)CC(=O)[C@@H]1CCCCCCCO [Prostaglandin E1 Alcohol]
- percent Bodipy-positive cells [6]: 32.5 ± 9.6%

SMILES: O=C1c2ccccc2C(Cc2ccnc(F)c2)(Cc2ccnc(F)c2)c2ccccc21
- percent Bodipy-positive cells [1]: 7.94 ± 2.8%

SMILES: Cc1cc([C@@H](C)Nc2ccccc2C(=O)O)c2nc(N3CCOCC3)cc(=O)n2c1
- percent Bodipy-positive cells [3]: 13.2 ± 6.5%
- percent Bodipy-positive cells [4]: 8.82 ± 0.9%
- percent Bodipy-positive cells [5]: 12.8 ± 2.2%
- percent Bodipy-positive cells [2]: 5.49 ± 2.2%
- percent Bodipy-positive cells [1]: 10.4% and 8.75%

SMILES: CCCCNc1ccc(C(=O)OCCOCCOCCOCCOCCOCCOCCOCCOCCOC)cc1 [Benzonatate]
- percent Bodipy-positive cells: 31.1 ± 2.6%

SMILES: O=c1c(-c2ccc(O)cc2)coc2c([C@@H]3O[C@H](CO)[C@@H](O)[C@H](O)[C@H]3O)c(O)ccc12 [Puerarin]
- percent Bodipy-positive cells [2]: 6.79 ± 0.13%
- percent Bodipy-positive cells [1]: 17.6 ± 9.6%
